Counter-ions that a name gives are not always drawn. The list shows a part of the results. Hit calls seldom repeat between salt and free forms of one compound.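 Kinases, fused to nanoluciferase, were expressed in K562 cells; luminescence was measured every 4 h from 2 to 18 h as percent of control (DMSO = 100%, positive control = 0%). A time point is decreased if signal falls significantly (2 sigma). Hits were called by the authors by a rule that is not shown; the count of time points alone does not decide it.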
What was measured:
Experiment in all cases: number of time points (of 5) at which kinase-Nluc abundance scored as decreased, DMSO-normalised (count); higher = more persistent destabilization
Settings in all cases: K562; 2-18 h
[1] = molecular target: ALK (UniProt Q9UM73)
[2] = molecular target: ARAF (UniProt P10398)
[3] = molecular target: AURKA (UniProt O14965)
[4] = molecular target: AURKB (UniProt Q96GD4)
[5] = molecular target: AURKC (UniProt Q9UQB9)
[6] = molecular target: BLK (UniProt P51451)
[7] = molecular target: BMX (UniProt P51813)
[8] = molecular target: BRAF (UniProt P15056)
[9] = system: BRAF_V600E
[10] = molecular target: BTK (UniProt Q06187)
[11] = molecular target: CAMK2A (UniProt Q9UQM7)
[12] = molecular target: CAMK2G (UniProt Q13555)
[13] = molecular target: CDK10 (UniProt Q15131)
[14] = molecular target: CDK2 (UniProt P24941)
[15] = molecular target: CDK3 (UniProt Q00526)
[16] = molecular target: CDK5 (UniProt Q00535)
[17] = molecular target: CDK6 (UniProt Q00534)
[18] = molecular target: CHEK2 (UniProt O96017)
[19] = molecular target: CSF1R (UniProt P07333)
[20] = molecular target: CSK (UniProt P41240)

Protein sequences, listed by entry. Tags and fused reporters are not part of them. Lines headed by an entry give the natural chain unless they say otherwise; changes in a name come on top.
UniProt P10398: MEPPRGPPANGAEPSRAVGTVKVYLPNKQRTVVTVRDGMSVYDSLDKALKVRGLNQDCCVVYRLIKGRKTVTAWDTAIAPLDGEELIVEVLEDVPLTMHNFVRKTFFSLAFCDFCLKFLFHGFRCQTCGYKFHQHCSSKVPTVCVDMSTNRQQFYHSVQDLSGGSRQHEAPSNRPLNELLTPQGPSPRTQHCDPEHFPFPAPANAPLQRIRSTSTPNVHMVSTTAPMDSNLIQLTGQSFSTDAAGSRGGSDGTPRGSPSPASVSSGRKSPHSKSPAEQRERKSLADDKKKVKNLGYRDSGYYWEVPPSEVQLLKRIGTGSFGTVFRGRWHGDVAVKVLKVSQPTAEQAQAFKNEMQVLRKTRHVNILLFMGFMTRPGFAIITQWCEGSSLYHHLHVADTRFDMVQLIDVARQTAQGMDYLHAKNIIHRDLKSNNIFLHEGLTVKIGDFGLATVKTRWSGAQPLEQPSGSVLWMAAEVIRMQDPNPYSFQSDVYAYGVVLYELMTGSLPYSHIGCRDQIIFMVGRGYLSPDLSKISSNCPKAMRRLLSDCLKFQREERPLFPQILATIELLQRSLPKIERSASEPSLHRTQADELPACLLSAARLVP
UniProt O14965: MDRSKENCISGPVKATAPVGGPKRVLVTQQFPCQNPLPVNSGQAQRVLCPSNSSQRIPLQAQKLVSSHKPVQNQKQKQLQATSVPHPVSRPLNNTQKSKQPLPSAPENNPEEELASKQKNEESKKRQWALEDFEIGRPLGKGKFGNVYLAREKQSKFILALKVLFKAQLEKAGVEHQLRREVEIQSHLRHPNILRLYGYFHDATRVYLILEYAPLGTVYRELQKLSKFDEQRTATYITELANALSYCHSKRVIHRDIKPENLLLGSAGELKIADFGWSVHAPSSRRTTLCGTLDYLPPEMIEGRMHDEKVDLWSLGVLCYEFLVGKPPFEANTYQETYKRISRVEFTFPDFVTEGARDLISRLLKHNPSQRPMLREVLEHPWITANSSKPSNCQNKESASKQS
UniProt Q96GD4, whole entry: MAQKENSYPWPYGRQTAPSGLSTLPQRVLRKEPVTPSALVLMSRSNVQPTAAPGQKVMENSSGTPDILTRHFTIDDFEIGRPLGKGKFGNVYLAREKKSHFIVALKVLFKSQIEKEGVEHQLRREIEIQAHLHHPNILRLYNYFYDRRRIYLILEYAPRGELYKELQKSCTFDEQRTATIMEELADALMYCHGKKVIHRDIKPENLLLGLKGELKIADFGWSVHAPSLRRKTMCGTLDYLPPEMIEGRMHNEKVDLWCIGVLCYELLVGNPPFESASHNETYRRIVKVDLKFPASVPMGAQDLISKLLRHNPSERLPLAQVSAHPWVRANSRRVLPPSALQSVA
UniProt Q9UQB9: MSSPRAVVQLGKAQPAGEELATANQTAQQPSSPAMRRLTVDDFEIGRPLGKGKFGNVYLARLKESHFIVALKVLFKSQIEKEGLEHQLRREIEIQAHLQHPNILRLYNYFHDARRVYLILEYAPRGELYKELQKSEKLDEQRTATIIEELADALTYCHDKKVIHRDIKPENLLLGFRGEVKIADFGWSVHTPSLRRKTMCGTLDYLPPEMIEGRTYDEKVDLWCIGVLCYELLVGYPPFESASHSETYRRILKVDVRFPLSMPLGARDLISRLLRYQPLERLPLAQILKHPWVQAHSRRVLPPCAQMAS
UniProt P51451: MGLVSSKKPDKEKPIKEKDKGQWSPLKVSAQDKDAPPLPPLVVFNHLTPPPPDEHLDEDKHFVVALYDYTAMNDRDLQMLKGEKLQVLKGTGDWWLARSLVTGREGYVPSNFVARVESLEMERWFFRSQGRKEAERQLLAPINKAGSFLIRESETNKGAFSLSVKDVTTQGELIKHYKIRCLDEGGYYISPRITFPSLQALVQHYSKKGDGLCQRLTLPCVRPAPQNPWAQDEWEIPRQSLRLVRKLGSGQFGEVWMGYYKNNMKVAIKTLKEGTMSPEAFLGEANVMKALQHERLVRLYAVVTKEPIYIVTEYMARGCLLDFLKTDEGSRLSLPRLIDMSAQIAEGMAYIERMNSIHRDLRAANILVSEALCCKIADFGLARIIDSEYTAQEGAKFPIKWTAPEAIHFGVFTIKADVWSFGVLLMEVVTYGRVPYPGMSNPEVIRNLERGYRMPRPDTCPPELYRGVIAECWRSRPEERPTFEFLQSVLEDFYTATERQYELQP
UniProt P51813: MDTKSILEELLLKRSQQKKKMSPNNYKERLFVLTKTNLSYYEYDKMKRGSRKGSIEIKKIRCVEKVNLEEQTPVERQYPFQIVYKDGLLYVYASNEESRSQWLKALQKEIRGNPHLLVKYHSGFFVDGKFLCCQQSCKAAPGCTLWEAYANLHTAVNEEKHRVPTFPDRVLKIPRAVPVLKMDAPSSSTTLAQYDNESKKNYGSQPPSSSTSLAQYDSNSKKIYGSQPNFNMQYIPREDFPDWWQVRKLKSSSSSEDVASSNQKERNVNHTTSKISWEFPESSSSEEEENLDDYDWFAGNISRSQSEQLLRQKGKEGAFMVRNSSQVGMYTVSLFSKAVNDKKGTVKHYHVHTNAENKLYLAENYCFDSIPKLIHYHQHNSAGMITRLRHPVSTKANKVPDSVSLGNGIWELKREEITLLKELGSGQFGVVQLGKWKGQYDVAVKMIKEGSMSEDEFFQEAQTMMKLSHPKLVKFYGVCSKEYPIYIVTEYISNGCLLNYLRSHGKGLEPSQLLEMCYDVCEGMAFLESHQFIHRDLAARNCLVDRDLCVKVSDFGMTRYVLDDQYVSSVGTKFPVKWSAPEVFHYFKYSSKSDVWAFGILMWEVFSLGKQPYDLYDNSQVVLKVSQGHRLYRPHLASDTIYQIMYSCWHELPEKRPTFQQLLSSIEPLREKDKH
UniProt P15056, whole entry, looked up: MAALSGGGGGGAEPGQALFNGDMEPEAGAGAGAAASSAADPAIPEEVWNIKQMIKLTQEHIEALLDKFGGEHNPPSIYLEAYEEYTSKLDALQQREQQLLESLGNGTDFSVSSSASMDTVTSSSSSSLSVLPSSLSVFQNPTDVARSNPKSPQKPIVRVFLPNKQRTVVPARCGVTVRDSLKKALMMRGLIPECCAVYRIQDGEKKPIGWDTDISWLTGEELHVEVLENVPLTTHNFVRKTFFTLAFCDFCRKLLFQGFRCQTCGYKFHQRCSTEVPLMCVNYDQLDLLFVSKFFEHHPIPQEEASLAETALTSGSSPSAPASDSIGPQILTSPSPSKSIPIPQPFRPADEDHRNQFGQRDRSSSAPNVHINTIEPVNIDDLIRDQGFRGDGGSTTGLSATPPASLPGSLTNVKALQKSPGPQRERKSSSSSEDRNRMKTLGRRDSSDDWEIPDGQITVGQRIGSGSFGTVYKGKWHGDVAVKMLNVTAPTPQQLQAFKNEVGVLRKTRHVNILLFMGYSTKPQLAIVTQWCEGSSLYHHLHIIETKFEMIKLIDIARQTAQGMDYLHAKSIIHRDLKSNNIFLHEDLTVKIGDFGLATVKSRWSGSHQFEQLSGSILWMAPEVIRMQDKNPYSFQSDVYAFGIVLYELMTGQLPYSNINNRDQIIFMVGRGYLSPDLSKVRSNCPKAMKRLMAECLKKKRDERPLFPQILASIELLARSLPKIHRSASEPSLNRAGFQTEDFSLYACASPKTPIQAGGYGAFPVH
UniProt Q06187: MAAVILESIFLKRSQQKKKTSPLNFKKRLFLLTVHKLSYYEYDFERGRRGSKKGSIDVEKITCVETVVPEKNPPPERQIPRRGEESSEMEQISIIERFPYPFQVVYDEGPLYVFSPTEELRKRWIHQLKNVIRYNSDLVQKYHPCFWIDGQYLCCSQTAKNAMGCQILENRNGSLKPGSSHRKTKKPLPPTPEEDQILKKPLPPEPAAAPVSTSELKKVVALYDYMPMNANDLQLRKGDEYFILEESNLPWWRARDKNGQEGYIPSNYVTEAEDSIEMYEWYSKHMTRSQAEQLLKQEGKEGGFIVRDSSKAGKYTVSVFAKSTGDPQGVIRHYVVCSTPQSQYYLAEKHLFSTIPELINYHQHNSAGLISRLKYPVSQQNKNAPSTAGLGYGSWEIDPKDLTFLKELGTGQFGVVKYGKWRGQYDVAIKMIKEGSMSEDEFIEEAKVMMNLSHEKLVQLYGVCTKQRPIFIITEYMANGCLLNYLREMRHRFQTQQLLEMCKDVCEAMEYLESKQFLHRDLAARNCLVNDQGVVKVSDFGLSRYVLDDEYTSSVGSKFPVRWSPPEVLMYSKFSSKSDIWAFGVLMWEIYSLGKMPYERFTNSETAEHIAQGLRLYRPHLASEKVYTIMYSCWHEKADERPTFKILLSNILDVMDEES
UniProt Q13555: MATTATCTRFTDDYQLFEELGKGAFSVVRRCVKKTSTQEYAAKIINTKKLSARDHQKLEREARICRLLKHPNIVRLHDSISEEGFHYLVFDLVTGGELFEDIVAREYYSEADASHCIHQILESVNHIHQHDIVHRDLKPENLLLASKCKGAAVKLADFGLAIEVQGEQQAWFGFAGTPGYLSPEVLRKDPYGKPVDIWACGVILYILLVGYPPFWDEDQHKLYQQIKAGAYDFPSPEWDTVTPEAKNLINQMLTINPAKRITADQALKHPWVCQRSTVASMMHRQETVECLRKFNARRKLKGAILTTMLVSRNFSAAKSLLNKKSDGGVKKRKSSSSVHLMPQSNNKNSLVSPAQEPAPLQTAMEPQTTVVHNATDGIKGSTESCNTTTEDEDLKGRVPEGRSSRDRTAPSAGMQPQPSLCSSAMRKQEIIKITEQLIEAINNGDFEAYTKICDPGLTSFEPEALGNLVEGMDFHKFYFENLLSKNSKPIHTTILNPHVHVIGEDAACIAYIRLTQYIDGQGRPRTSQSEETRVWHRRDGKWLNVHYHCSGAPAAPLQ
UniProt Q15131: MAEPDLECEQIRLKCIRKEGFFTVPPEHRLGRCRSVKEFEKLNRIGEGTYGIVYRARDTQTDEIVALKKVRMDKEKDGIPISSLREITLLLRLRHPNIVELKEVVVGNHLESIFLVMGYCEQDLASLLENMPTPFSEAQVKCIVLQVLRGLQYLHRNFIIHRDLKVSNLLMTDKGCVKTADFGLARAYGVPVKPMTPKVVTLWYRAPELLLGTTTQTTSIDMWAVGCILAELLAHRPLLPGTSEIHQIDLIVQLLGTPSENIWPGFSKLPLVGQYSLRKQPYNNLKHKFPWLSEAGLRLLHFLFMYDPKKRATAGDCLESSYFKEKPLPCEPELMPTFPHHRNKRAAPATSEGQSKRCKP
UniProt Q00535, whole entry, looked up: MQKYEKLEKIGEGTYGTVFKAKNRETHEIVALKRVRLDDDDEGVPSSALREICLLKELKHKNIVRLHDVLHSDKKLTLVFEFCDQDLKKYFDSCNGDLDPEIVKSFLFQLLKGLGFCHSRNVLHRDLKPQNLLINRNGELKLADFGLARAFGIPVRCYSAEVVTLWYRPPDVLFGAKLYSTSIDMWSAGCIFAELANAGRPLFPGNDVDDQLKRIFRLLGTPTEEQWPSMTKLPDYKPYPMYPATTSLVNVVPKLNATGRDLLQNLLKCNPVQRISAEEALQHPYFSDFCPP
UniProt O96017, whole entry: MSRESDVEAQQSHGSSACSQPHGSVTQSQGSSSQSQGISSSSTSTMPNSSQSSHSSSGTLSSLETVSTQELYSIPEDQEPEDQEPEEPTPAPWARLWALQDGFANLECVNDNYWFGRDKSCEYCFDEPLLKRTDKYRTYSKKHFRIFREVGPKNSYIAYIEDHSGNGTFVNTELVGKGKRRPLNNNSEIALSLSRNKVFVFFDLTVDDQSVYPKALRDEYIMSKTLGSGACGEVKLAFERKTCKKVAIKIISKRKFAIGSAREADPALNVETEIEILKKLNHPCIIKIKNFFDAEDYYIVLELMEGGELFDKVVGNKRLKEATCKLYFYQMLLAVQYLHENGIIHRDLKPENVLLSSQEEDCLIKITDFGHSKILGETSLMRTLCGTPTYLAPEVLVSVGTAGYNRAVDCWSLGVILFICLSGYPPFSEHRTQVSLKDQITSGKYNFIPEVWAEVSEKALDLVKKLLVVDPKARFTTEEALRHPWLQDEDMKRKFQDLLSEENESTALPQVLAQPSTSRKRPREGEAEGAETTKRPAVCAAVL
UniProt P41240: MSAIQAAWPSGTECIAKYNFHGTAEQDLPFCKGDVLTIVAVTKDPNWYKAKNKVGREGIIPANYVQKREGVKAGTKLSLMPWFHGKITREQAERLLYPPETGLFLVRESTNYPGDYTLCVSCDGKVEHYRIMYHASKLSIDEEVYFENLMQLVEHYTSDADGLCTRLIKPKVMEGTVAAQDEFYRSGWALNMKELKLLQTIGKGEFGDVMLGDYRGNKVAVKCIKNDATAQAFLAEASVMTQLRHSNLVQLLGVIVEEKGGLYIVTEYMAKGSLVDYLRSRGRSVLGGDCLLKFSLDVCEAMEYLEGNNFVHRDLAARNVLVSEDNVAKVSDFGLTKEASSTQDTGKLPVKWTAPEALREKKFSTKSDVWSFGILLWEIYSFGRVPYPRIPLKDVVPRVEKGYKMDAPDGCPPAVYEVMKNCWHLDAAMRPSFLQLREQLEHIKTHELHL

Measured: number of time points

CCC(F)(F)c1cc(N2CCC(S(C)(=O)=O)CC2)nc2sc(C(N)=O)c(N)c12 (10 µM)
0: [1] | [2] | [3] | [4] | [5] | [6] | [7] | [8] | [9] | [10] | [11] | [12] | [13] | [14] | [15] | [16] | [17] | [18] | [19] | [20]

CC(C)n1c(CO)nc2c(F)cc(-c3nc(Nc4ccc(CN5CCNCC5)cn4)ncc3F)cc21 (10 µM)
2: [19]
4: [4] | [7]
0: [2] | [5] | [8] | [10] | [11] | [13] | [14] | [15] | [16] | [17] | [20]
3: [1] | [3] | [6] | [9] | [12] | [18]

CO[C@]1(C(=O)N[C@@H](C)c2ccc(-n3cc(F)cn3)nc2)CC[C@H](c2nc(C)cc(Nc3cc(C)[nH]n3)n2)CC1 [Pralsetinib] (10 µM)
0: [1] | [2] | [3] | [4] | [5] | [6] | [7] | [8] | [9] | [10] | [11] | [12] | [13] | [14] | [15] | [16] | [17] | [18] | [19] | [20]

CCCCC(=O)OCC(=O)[C@]1(O)Cc2c(O)c3c(c(O)c2[C@@H](O[C@H]2C[C@H](NC(=O)C(F)(F)F)[C@H](O)[C@H](C)O2)C1)C(=O)c1c(OC)cccc1C3=O [Valrubicin] (10 µM)
1: [9]
0: [1] | [2] | [3] | [4] | [5] | [6] | [7] | [8] | [10] | [11] | [12] | [13] | [14] | [15] | [16] | [17] | [18] | [19] | [20]

N=C(NC(=N)N1CCCC1)Nc1ccc(OC(F)(F)F)cc1 (10 µM)
0: [1] | [2] | [3] | [4] | [5] | [6] | [7] | [8] | [9] | [10] | [11] | [12] | [13] | [14] | [15] | [16] | [17] | [18] | [19] | [20]

Nc1ccc(C(=O)Nc2cccc(-c3nc(N4CCOCC4)c4oc5ncccc5c4n3)c2)cn1 (10 µM)
1: [9]
0: [1] | [2] | [3] | [4] | [5] | [6] | [7] | [8] | [10] | [11] | [12] | [13] | [14] | [15] | [16] | [17] | [18] | [19] | [20]

C[C@H](Nc1cc2c(-c3ccc4c(c3)OCO4)noc2cn1)c1ccccc1 (10 µM)
0: [1] | [2] | [3] | [4] | [5] | [6] | [7] | [8] | [9] | [10] | [11] | [12] | [13] | [14] | [15] | [16] | [17] | [18] | [19] | [20]

CC(C1CC1)n1cnc2c(NCc3cccc(C(F)(F)F)c3)nc(NCCN(C)C)nc21 (stereo not given) (10 µM)
0: [1] | [2] | [3] | [4] | [5] | [6] | [7] | [8] | [9] | [10] | [11] | [12] | [13] | [14] | [15] | [16] | [17] | [18] | [19] | [20]

NCCNS(=O)(=O)c1ccc(Cl)c2ccncc12 [CKI-7 (free base)] (10 µM)
0: [1] | [2] | [3] | [4] | [5] | [6] | [7] | [8] | [9] | [10] | [11] | [12] | [13] | [14] | [15] | [16] | [17] | [18] | [19] | [20]

COc1ccc(Cl)cc1N(CC(=O)Nc1ccc2c(c1)OCO2)S(=O)(=O)c1ccccc1 (2.5 µM)
0: [1] | [2] | [3] | [4] | [5] | [6] | [7] | [8] | [9] | [10] | [11] | [12] | [13] | [14] | [15] | [16] | [17] | [18] | [19] | [20]

Cc1cnc(Cl)nc1-c1ccc(N(Cc2ccc(CNC(=O)C(F)F)cc2)C(=O)c2ccc(O)cc2O)cc1 (10 µM)
0: [1] | [2] | [3] | [4] | [5] | [6] | [7] | [8] | [9] | [10] | [11] | [12] | [13] | [14] | [15] | [16] | [17] | [18] | [19] | [20]

CC(C)Cn1ncc2cc(Oc3ccc(F)cc3F)c(C(=O)NCCN(C)C)cc21 [p38α inhibitor 1] (10 µM)
0: [1] | [2] | [3] | [4] | [5] | [6] | [7] | [8] | [9] | [10] | [11] | [12] | [13] | [14] | [15] | [16] | [17] | [18] | [19] | [20]

O=C(Nc1ccc(Cl)cc1)C1CN(C(=O)c2cccc(-c3ccco3)c2)CC(F)(F)C1 (stereo not given) (2.5 µM)
0: [1] | [2] | [3] | [4] | [5] | [6] | [7] | [8] | [9] | [10] | [11] | [12] | [13] | [14] | [15] | [16] | [17] | [18] | [19] | [20]

A draw from above in order of formula weight, rising.
N=C(NC(=N)N1CCCC1)Nc1ccc(OC(F)(F)F)cc1 (10 µM)
0: [1] | [2] | [3] | [4] | [5] | [6] | [7] | [8] | [9] | [10] | [11] | [12] | [13] | [14] | [15] | [16] | [17] | [18] | [19] | [20]

C[C@H](Nc1cc2c(-c3ccc4c(c3)OCO4)noc2cn1)c1ccccc1 (10 µM)
0: [1] | [2] | [3] | [4] | [5] | [6] | [7] | [8] | [9] | [10] | [11] | [12] | [13] | [14] | [15] | [16] | [17] | [18] | [19] | [20]

Nc1ccc(C(=O)Nc2cccc(-c3nc(N4CCOCC4)c4oc5ncccc5c4n3)c2)cn1 (10 µM)
1: [9]
0: [1] | [2] | [3] | [4] | [5] | [6] | [7] | [8] | [10] | [11] | [12] | [13] | [14] | [15] | [16] | [17] | [18] | [19] | [20]

Later entries.

CO/N=C1/C(c2c(O)[nH]c3cc(Cl)c(Cl)cc23)=Nc2ccccc21 (10 µM)
0: [1] | [2] | [3] | [4] | [5] | [6] | [7] | [8] | [9] | [10] | [11] | [12] | [13] | [14] | [15] | [16] | [17] | [18] | [19] | [20]

CN1CCN(Cc2ccc(-c3cnc4[nH]cc(-c5ccc6[nH]ccc6c5)c4c3)cc2)CC1 (2.5 µM)
1: [9]
0: [1] | [2] | [3] | [4] | [5] | [6] | [7] | [8] | [10] | [11] | [12] | [13] | [14] | [15] | [16] | [17] | [18] | [19] | [20]

Cc1ncc(-c2cc(F)c(O)c(F)c2)cc1-c1cc(F)c(O)c(F)c1 (10 µM)
0: [1] | [2] | [3] | [4] | [5] | [6] | [7] | [8] | [9] | [10] | [11] | [12] | [13] | [14] | [15] | [16] | [17] | [18] | [19] | [20]

CC/C(=C(\c1ccccc1)c1ccc(OCCNC)cc1)c1ccccc1 [N-Desmethyltamoxifen (hydrochloride)] (2.5 µM)
0: [1] | [2] | [3] | [4] | [5] | [6] | [7] | [8] | [9] | [10] | [11] | [12] | [13] | [14] | [15] | [16] | [17] | [18] | [19] | [20]

CC1=C(C#N)C(c2ccc3[nH]nc(C)c3c2)C(C#N)=C(C)N1 (10 µM)
0: [1] | [2] | [3] | [4] | [5] | [6] | [7] | [8] | [9] | [10] | [11] | [12] | [13] | [14] | [15] | [16] | [17] | [18] | [19] | [20]

N#C/C(=C/c1ccc(O)c(O)c1)C(=O)N1CCc2ccccc21 [Tyrphostin AG 528] (10 µM)
0: [1] | [2] | [3] | [4] | [5] | [6] | [7] | [8] | [9] | [10] | [11] | [12] | [13] | [14] | [15] | [16] | [17] | [18] | [19] | [20]

CN1CCN(Cc2ccc(-c3cn(C4CCC(O)CC4)c4nc(NCCC5CC5)ncc34)cc2)CC1 (stereo not given) (2.5 µM)
0: [1] | [2] | [4] | [5] | [7] | [8] | [10] | [11] | [12] | [13] | [14] | [15] | [16] | [17] | [18] | [20]
2: [9]
1: [3] | [6] | [19]

NC(=O)c1cnc(N[C@@H]2CCCC[C@@H]2N)nc1Nc1cccc(-n2nccn2)c1 (2.5 µM)
0: [1] | [2] | [3] | [4] | [5] | [6] | [7] | [8] | [9] | [10] | [11] | [12] | [13] | [14] | [15] | [16] | [17] | [18] | [19] | [20]

N#CC(=C(/N)Sc1ccccc1N)/C(C#N)=C(\N)Sc1ccccc1N (10 µM)
0: [1] | [2] | [3] | [4] | [5] | [6] | [7] | [8] | [9] | [10] | [11] | [12] | [13] | [14] | [15] | [16] | [17] | [18] | [19] | [20]

Source: the supplement of paper PMC12823440, “Inhibitors supercharge kinase turnover through native proteolytic circuits” (Nature, 2025)
